Experimental findings from publication PMC6836825, “K^+ Channel-SEC11 Binding Exchange Regulates SNARE Assembly for Secretory Traffic^1” (Plant Physiology, 2019) are described below.

Protein sequences, listed by entry. Tags and fused reporters are not part of them. Lines headed by an entry give the natural chain unless they say otherwise; changes in a name come on top.
UniProt Q39128: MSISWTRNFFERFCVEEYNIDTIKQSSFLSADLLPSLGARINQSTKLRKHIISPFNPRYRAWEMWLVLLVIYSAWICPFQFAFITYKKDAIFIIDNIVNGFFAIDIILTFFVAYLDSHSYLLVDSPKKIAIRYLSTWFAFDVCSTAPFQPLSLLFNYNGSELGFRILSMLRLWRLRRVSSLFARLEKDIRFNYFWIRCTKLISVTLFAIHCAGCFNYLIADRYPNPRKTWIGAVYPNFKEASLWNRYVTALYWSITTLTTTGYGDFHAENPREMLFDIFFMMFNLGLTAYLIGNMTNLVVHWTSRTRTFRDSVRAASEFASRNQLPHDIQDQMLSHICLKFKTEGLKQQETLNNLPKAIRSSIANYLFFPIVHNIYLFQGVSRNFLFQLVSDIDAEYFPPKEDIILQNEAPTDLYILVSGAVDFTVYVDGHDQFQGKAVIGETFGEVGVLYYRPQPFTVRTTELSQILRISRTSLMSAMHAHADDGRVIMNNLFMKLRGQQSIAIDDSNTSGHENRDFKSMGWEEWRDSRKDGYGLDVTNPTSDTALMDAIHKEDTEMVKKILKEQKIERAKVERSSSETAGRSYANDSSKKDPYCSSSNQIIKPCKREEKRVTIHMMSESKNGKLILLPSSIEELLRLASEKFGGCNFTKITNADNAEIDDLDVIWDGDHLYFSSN
UniProt P92960: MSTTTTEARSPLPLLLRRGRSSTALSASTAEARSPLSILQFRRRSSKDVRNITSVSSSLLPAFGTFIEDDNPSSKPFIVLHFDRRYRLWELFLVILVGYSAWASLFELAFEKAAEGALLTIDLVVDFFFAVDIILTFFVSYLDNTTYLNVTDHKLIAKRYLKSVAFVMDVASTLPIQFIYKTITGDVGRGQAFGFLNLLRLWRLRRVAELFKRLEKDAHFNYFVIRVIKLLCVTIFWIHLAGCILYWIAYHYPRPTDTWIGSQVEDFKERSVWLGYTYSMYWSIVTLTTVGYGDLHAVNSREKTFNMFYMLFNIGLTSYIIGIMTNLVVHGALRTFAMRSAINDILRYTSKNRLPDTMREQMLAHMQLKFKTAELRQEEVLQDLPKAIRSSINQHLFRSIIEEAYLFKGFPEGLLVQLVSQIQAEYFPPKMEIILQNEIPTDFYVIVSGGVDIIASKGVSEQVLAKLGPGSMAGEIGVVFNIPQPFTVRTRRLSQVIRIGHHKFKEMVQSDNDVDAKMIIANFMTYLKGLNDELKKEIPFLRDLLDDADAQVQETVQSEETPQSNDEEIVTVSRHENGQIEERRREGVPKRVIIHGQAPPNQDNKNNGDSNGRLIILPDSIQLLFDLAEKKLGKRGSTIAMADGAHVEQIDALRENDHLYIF

Holding throughout (assay): two-hybrid; mating-based split-ubiquitin system (mbSUS) in diploid yeast (THY.AP4 x THY.AP5); growth on CSM-LTUMAH without and with 50 μM Met, 72 h, 28°C; SNAP33 and SEC11 anchored via a GPI signal peptide
Assay [1] addresses KAT1^E63A mutant, mbSUS fusion (Arabidopsis thaliana) (UniProt Q39128).
The target in assay [2] is KC1 K^+ channel, full-length, split-ubiquitin (mbSUS) fusion (Arabidopsis thaliana) (UniProt P92960).
Assay [3] addresses KAT1 K^+ channel, split-ubiquitin (mbSUS) fusion (Arabidopsis thaliana) (UniProt Q39128).

These are yes or no findings as the source states them, for the method shown. Some binding calls cover weakened binding; strength is not graded here. Tags and fused reporters may be left off the sequences shown.

B1: SNAP33, GPI-anchored split-ubiquitin (mbSUS) fusion (protein, UniProt Q9S7P9 1-300)
chain: MFGLRKSPANLPKHNSVDLKSSKPNPFDSDDESDNKHTLNPSKRTTSEPSLADMTNPFGGERVQKGDSSSSKQSLFSNSKYQYKNNFRDSGGIENQSVQELEGYAVYKAEETTKSVQGCLKVAEDIRSDATRTLVMLHDQGEQITRTHHKAVEIDHDLSRGEKLLGSLGGMFSKTWKPKKTRPINGPVVTRDDSPTRRVNHLEKREKLGLNSAPRGQSRTREPLPESADAYQRVEMEKAKQDDGLSDLSDILGELKNMAVDMGSEIEKQNKGLDHLHDDVDELNFRVQQSNQRGRRLLGK
Turning to B1, the binding result is “binds weakly” in assay [1], “binds” in assay [2] and “binds” in assay [3].
